Like-named read-outs stand apart in the source and are kept apart here. Results are given in words; binding and its absence hold for the method and conditions named. Binding seen in cells or lysates may run through a third protein. Binding can be weak; no strength is given. Where a sequence is shown, tags or fusion partners need not be part of it.
Assays:
[1] = biological target: T1, Flag-Hpo (Flag-tagged Drosophila Hippo, from UAS-Flag-Hpo) (Drosophila melanogaster) (UniProt Q8T0S6); experiment: co-IP
T1 sequence: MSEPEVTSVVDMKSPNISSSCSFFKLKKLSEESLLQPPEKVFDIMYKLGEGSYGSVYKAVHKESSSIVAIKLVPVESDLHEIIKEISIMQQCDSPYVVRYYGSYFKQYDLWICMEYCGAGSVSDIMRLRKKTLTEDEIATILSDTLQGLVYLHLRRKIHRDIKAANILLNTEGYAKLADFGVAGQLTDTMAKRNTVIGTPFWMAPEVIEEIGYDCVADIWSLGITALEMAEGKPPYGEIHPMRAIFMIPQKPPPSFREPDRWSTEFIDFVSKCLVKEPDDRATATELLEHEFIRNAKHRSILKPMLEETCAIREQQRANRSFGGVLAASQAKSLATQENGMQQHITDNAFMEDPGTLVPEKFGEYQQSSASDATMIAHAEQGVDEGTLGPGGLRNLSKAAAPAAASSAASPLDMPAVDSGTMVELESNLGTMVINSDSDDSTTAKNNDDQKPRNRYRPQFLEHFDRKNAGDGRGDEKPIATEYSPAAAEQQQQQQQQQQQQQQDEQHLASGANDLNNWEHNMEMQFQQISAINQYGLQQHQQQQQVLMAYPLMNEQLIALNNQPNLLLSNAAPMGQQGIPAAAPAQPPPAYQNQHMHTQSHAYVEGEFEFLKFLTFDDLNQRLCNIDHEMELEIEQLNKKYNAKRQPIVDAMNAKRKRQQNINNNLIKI

Sequences of proteins named here, by UniProt entry; tags and fusion partners are left off. A change or cut given only in a name is not applied to a line headed by its entry.
UniProt Q9VKR0: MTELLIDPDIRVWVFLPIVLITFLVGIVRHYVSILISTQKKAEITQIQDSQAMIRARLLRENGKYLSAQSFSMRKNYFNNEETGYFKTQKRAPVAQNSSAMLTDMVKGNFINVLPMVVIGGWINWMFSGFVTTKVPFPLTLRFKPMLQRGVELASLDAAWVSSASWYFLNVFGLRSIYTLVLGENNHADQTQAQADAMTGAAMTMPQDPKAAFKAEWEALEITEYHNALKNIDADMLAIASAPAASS

[2] = biological target: T1, Flag-Hpo (Flag-tagged Drosophila Hippo, from UAS-Flag-Hpo) (Drosophila melanogaster); experiment: co-IP; remark: listed apart in the source

binding [1] | binding [2] | Substance
binds | binds | EMC1-GFP (GFP-tagged Drosophila EMC1, from UAS-EMC1-GFP)
binds | – | EMC3-Myc (Myc-tagged Drosophila EMC3, from UAS-EMC3-MYC) (from UniProt Q9VKR0)

— article doi:10.1101/2022.01.25.477727
